Test results taken from patent US20140066382A1.
Results are given in words; binding and its absence hold for the method and conditions named. In cells and extracts the contact can be indirect. Some binding calls cover weakened binding; strength is not graded here.

The chains behind the UniProt entries cited, without tags or fusion partners.
UniProt Q14457: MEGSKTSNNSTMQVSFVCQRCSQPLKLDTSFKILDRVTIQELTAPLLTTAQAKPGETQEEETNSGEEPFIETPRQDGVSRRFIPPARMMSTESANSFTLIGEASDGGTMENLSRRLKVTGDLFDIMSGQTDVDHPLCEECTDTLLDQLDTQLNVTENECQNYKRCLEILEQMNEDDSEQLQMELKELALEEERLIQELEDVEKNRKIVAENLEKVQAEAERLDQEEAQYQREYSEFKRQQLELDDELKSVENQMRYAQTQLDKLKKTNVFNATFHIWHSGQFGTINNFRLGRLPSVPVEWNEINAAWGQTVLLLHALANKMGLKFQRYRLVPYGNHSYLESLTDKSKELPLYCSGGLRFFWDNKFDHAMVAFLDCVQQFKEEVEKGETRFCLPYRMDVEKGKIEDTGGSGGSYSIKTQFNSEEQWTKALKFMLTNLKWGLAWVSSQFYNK

Molecular target: T1, GAPR-1 (UniProt Q9H4G4)
T1 sequence (looked up): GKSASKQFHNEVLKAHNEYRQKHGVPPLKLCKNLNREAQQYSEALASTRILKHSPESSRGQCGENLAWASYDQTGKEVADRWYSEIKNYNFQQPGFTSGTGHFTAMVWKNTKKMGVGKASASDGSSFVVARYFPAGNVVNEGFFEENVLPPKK
Assay: co-immunoprecipitation

WT Flag-Beclin 1 (from UniProt Q14457 1-450)
binding: binds
